In US12098218 (dated 2024):

Assay: general procedure: Fmoc solid-phase peptide synthesis; HBTU/diisopropylethylamine; diisopropylcarbodiimide/1-hydroxybenzotriazole
Settings: whole synthesis, HPLC (Agilent UPLC 1290, C8 Zorbax Eclipse plus, 226 nm)

## Fmoc-4-Aph-Leu-Lys(iPr)-Pro-Ala-NH2
Run 1
  crude HPLC purity: purity 53.24%
Run 2
  crude HPLC purity: 65%
Run 3
  crude HPLC purity: 67%
